About 18,000 (4.4%) of roughly 410,000 compounds were called active. The shares of active, inactive and inconclusive entries below differ from those in the screen. Rule as the data show it: active = activity change below about -60%; inconclusive = no clear call, values can overlap the other calls; inactive = above about -39%.
assay: qHTS Assay for inhibitors of the human cytomegalovirus (HCMV); conditions: HFF cells, HCMV-luciferase reporter, 72 h; at 57.5 µM; hits give low values
Outline: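 Two-dose cell screen: HFF monolayers treated with compounds and infected with luciferase-expressing HCMV at 1 PFU/cell, 72 h at 37C, then lysed for luciferase measurement.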
% is scaled to controls: 0 for no effect and ±100 for the full control effect.

Question: With O=C(NCCc1csc(-c2ccc(F)cc2)n1)c1c(F)cccc1Cl as the compound, how does the activity change, negative = inhibition read?
Answer: The activity change, negative = inhibition was inactive: -38.5%.

Question: Which activity change, negative = inhibition does the source give for COC(=O)[C@]12CCCCC=C1N(CCC1=CCCCC1)C(=O)[C@H](CC(=O)NCCC(C)C)C2 here?
Answer: Its activity change, negative = inhibition is inconclusive: -48.4%.

Question: Which activity change, negative = inhibition does the source give for CC1=Nc2ccc(C)c3nc(C)cc(c23)N1c1ccc(C)cc1 here?
Answer: Its activity change, negative = inhibition is inactive: 9.36%.

Question: With CCOC(=O)c1nn(-c2ccc3ccccc3c2)cc1O as the compound, how does the activity change, negative = inhibition read?
Answer: The activity change, negative = inhibition was inactive: 59.4%.

Question: Which activity change, negative = inhibition does the source give for O=C(Nc1ccc(N2CCCCC2)c(Cl)c1)c1ccc2c(c1)OCCO2 here?
Answer: The activity change, negative = inhibition was active: -77.1%.

Question: Which activity change, negative = inhibition does the source give for O=C(CCS(=O)(=O)c1ccc(Cl)cc1)Nc1cccc(S(=O)(=O)N2CCCCCC2)c1 here?
Answer: Its activity change, negative = inhibition is inactive: -5.83%.

Question: For O=C(c1ccc(S(=O)(=O)Cc2cc(F)ccc2F)c([N+](=O)[O-])c1)N1CCCCC1, which activity change, negative = inhibition is on record?
Answer: Its activity change, negative = inhibition is inconclusive: -50.6%.

Question: For CCOc1ccc(S(=O)(=O)N(C(=O)c2ccncc2)c2ccc3oc(C)c(C(=O)OC)c3c2)cc1, which activity change, negative = inhibition is on record?
Answer: Its activity change, negative = inhibition is active: -78.7%.

Question: For CC[C@H](CO)Nc1nc(Nc2cccc(Cl)c2)c2ncn(C(C)C)c2n1, which activity change, negative = inhibition is on record?
Answer: Its activity change, negative = inhibition is active: -65.3%.

Question: For COc1ccc(-c2cc(C(=O)Nc3ccc(C(N)=O)cc3)c3ccccc3n2)cc1OC, which activity change, negative = inhibition is on record?
Answer: Its activity change, negative = inhibition is active: -91.5%.

Question: With COc1ccc(C(=O)OCC(=O)NC2CC2)cc1F as the compound, how does the activity change, negative = inhibition read?
Answer: The activity change, negative = inhibition was inconclusive: -57%.

Question: For CCOC(=O)c1sc2nc(CN3CCN(c4cccc(C(F)(F)F)c4)CC3)[nH]c(=O)c2c1C, which activity change, negative = inhibition is on record?
Answer: Its activity change, negative = inhibition is inconclusive: -43.3%.

Question: For CSc1cccc(CN2CCC(CO)(Cc3cccc(C(F)(F)F)c3)CC2)c1, which activity change, negative = inhibition is on record?
Answer: The activity change, negative = inhibition was inconclusive: -44.7%.

Question: With COc1cccc(C(=O)NC(C)c2cccc3ccccc23)c1OC (centres undefined) as the compound, how does the activity change, negative = inhibition read?
Answer: Its activity change, negative = inhibition is inconclusive: -58.2%.

Question: For COc1ccc(CN2CCOCCOCCN(Cc3ccc(OC)cc3)CCOCCOCC2)cc1, which activity change, negative = inhibition is on record?
Answer: The activity change, negative = inhibition was inactive: -26.6%.

Question: With COc1ccc(-c2cc(=O)oc3c(C)c(OC(C)C(=O)NCc4ccccn4)ccc23)cc1 (centres undefined) as the compound, how does the activity change, negative = inhibition read?
Answer: The activity change, negative = inhibition was inactive: -18.9%.

Question: With COc1ccc(N2CCN(C3CCCN(C(=O)CSC)C3)CC2)cc1 (centres undefined) as the compound, how does the activity change, negative = inhibition read?
Answer: Its activity change, negative = inhibition is inconclusive: -45.6%.

Question: For Cc1cc(O)c(CN2CCN(c3ccccc3)CC2)cc1C, which activity change, negative = inhibition is on record?
Answer: The activity change, negative = inhibition was inactive: -14.4%.

Question: For Cc1ccc(OCCNC(=O)c2cncc(Br)c2)cc1C, which activity change, negative = inhibition is on record?
Answer: Its activity change, negative = inhibition is active: -107%.

Question: For Cc1nc2ccc(NS(=O)(=O)c3c(F)cccc3F)cc2s1, which activity change, negative = inhibition is on record?
Answer: The activity change, negative = inhibition was inconclusive: -46.4%.

Question: For Cc1ccc(NC(=O)c2cccc(NC(=O)CCC(=O)O)c2)cc1C, which activity change, negative = inhibition is on record?
Answer: The activity change, negative = inhibition was inconclusive: -43.7%.

Question: With CC(C)(C)n1nc2c(c1NC(=O)c1cc(Cl)ccc1[N+](=O)[O-])CS(=O)(=O)C2 as the compound, how does the activity change, negative = inhibition read?
Answer: Its activity change, negative = inhibition is inconclusive: 0%.

Question: With COc1ccc2[nH]c(C)c(CN3CCC(C)CC3)c(=O)c2c1 as the compound, how does the activity change, negative = inhibition read?
Answer: Its activity change, negative = inhibition is inconclusive: -57.9%.

Question: Which activity change, negative = inhibition does the source give for CCOC(=O)N1CCN(C(=O)CSc2ncnc3ccccc23)CC1 here?
Answer: Its activity change, negative = inhibition is inconclusive: -53.6%.

Question: For COc1cccc(OCC(O)CN2CCC(C)CC2)c1 (centres undefined), which activity change, negative = inhibition is on record?
Answer: Its activity change, negative = inhibition is inconclusive: -49.2%.

Question: Which activity change, negative = inhibition does the source give for COc1cccc(NC(=O)c2nn(C34CC5CC(CC(C5)C3)C4)cc2[N+](=O)[O-])c1 here?
Answer: Its activity change, negative = inhibition is active: -71.1%.

Question: Which activity change, negative = inhibition does the source give for COc1ccccc1Nc1nc(NCc2ccco2)c2ccccc2n1 here?
Answer: Its activity change, negative = inhibition is active: -99.2%.

Question: With CCc1ccc(NC(=O)c2cc(-c3ccc(F)cc3)on2)cc1 as the compound, how does the activity change, negative = inhibition read?
Answer: Its activity change, negative = inhibition is inconclusive: -47.2%.

Question: For CC(C)C[C@@H](CNC(=O)OC(C)(C)C)NC(=O)c1nc[nH]c1C(=O)N[C@@H](CC(C)C)C(=O)CNC[C@H](CC(C)C)NC(=O)c1nc[nH]c1C(=O)N[C@@H](Cc1c[nH]c2ccccc12)C(=O)OC(C)(C)C, which activity change, negative = inhibition is on record?
Answer: The activity change, negative = inhibition was inactive: 25.4%.

Question: Which activity change, negative = inhibition does the source give for COC(=O)c1ccc(NC(=O)c2cn(-c3ccccc3)nc2-c2ccncc2)cc1 here?
Answer: Its activity change, negative = inhibition is active: -97.8%.

Question: For COCCCNc1nc(N)c([N+](=O)[O-])c(N2CCCCCC2)n1, which activity change, negative = inhibition is on record?
Answer: Its activity change, negative = inhibition is inconclusive: -44.3%.

Question: Which activity change, negative = inhibition does the source give for CCc1c(C)nc2ncnn2c1N1CCC(C(=O)Nc2ccc(C)cc2)CC1 here?
Answer: The activity change, negative = inhibition was active: -86%.

Question: With c1ccc2c(-c3cccc4nccn34)cncc2c1 as the compound, how does the activity change, negative = inhibition read?
Answer: Its activity change, negative = inhibition is inconclusive: -59.6%.

Question: For Cc1nc2ccc(NC(=O)Cc3cccc(F)c3)cc2s1, which activity change, negative = inhibition is on record?
Answer: The activity change, negative = inhibition was inactive: 8.3%.

Question: For COC(=O)[C@H](CC(C)C)N(Cc1ccccc1)S(=O)(=O)N(Cc1ccccc1)[C@@H](CC(C)C)C(=O)OC, which activity change, negative = inhibition is on record?
Answer: The activity change, negative = inhibition was active: -68.7%.

Question: For Cc1c(NC(=O)Cc2cccs2)cccc1[N+](=O)[O-], which activity change, negative = inhibition is on record?
Answer: Its activity change, negative = inhibition is inconclusive: -57.1%.

Question: For CCOc1ccc(NC(=O)c2nn(-c3ccc(OC)cc3OC)c(=O)c3ccccc23)cc1, which activity change, negative = inhibition is on record?
Answer: Its activity change, negative = inhibition is inconclusive: -45.9%.

Question: Which activity change, negative = inhibition does the source give for Clc1ccc2nc3c(c(-c4ccccc4)c2c1)CNCC3 here?
Answer: Its activity change, negative = inhibition is inconclusive: -57%.

Question: For O=C(COc1ccccc1[N+](=O)[O-])Nc1cccc(S(=O)(=O)N2CCCC2)c1, which activity change, negative = inhibition is on record?
Answer: The activity change, negative = inhibition was inconclusive: -50.6%.

Question: For O=C(COC(=O)Cc1ccc(F)cc1)Nc1cc(S(=O)(=O)N2CCOCC2)ccc1N1CCCC1, which activity change, negative = inhibition is on record?
Answer: The activity change, negative = inhibition was inconclusive: -52.1%.

Question: For O=C(COC(=O)Cc1ccsc1)Nc1ccc(Cl)c(S(=O)(=O)N2CCOCC2)c1, which activity change, negative = inhibition is on record?
Answer: The activity change, negative = inhibition was inconclusive: -44.1%.

Question: For O=C(Nc1ncccn1)C12CC3CC(CC(C3)C1)C2, which activity change, negative = inhibition is on record?
Answer: Its activity change, negative = inhibition is inactive: 6.9%.

Question: Which activity change, negative = inhibition does the source give for COc1cccc(C(O)c2ncc(-c3ccc(Cl)cc3)[nH]2)c1 (centres undefined) here?
Answer: Its activity change, negative = inhibition is inactive: 15.8%.

Question: Which activity change, negative = inhibition does the source give for c1ccc(-c2ccc(-c3nc(-c4ccccn4)no3)cc2)cc1 here?
Answer: The activity change, negative = inhibition was active: -94.5%.

Question: Which activity change, negative = inhibition does the source give for O=C(Nc1cccc(Cl)c1N1CCCC1)c1ccc([N+](=O)[O-])o1 here?
Answer: The activity change, negative = inhibition was inactive: 1.95%.

Question: For O=C(Nc1cccc([N+](=O)[O-])c1)C1C2CC/C=C\CCC21 (centres undefined), which activity change, negative = inhibition is on record?
Answer: The activity change, negative = inhibition was inconclusive: -54.8%.

Question: With Cc1cc(C(=O)N/N=C/c2ccc(N(C)C)o2)cs1 as the compound, how does the activity change, negative = inhibition read?
Answer: Its activity change, negative = inhibition is inactive: 10.5%.

Question: With CC(=O)Nc1ccc(NC(=O)c2ccc(N(C)S(=O)(=O)c3ccc(C)cc3)cc2)cc1 as the compound, how does the activity change, negative = inhibition read?
Answer: The activity change, negative = inhibition was inactive: -8.04%.

Question: With CN(c1ccc(C(=O)N2CCCCC2)cc1)S(=O)(=O)c1ccccc1 as the compound, how does the activity change, negative = inhibition read?
Answer: The activity change, negative = inhibition was inconclusive: -42.1%.

Question: Which activity change, negative = inhibition does the source give for Cc1c(Cl)c([N+](=O)[O-])nn1CCCC(=O)NC1CCCCC1 here?
Answer: Its activity change, negative = inhibition is inconclusive: -41.9%.

Question: Which activity change, negative = inhibition does the source give for CNc1cncc(-c2cc(OC)ccc2OC)n1 here?
Answer: Its activity change, negative = inhibition is inconclusive: -58.1%.

Question: With O=C(CSc1n[nH]c(-c2ccco2)n1)Nc1ccccc1Cl as the compound, how does the activity change, negative = inhibition read?
Answer: Its activity change, negative = inhibition is inactive: -32.7%.

Question: For CCCCN1CCC(O)(c2ccccc2)C(C(=O)c2ccccc2)C1 (centres undefined), which activity change, negative = inhibition is on record?
Answer: The activity change, negative = inhibition was inconclusive: -55.6%.

Question: Which activity change, negative = inhibition does the source give for CCOc1ccc(CCNC(=O)CN2C(=O)c3cccnc3Oc3ccc(Cl)cc32)cc1 here?
Answer: Its activity change, negative = inhibition is inconclusive: -54.7%.
